Settings in all cases: 10 µM
In assay [1] the test system is Plasmodium vivax liver stage (primary human hepatocyte culture). Kind of assay: hypnozoite quantity inhibition (% inhibition); higher = more active against hypnozoites.
The test system is the same in assay [2]. Description: schizont net growth area inhibition (% inhibition); higher = more active against liver schizonts.
The test system of assay [3] is primary human hepatocytes. Kind of assay: hepatic nuclei reduction relative to DMSO (100 - % of negative control); higher = more toxic to hepatocytes.
[4] abbreviates: assay mode: Prophylactic (treated before or shortly after infection), fixed day 6 post-infection.
Setting [5] is: assay mode: Radical Cure (treated from day 5 post-infection for 3 days), fixed day 8 post-infection.

The list shows a part of the results. The data scatter; read single values as rough.

For the compound `CCCCNCC(O)(c1ccc(Cl)cc1)c1ccc(Cl)cc1`, the hypnozoite quantity inhibition came to 0.9 in assay [1] (setting [4]) and 33.6 in assay [1] (setting [5]). The “schizont net growth area inhibition” value is 1.1 in assay [2] (setting [4]) and -17.1 in assay [2] (setting [5]). Further, the figures for the hepatic nuclei reduction in assay [3] (setting [4]) and in assay [3] (setting [5]) were -5% and -2%, respectively.

For the compound `CC(C)n1ncc2c(C(=O)NCC(c3cccs3)N3CCOCC3)cc(-c3ccccc3)nc21` (stereo not drawn), the hypnozoite quantity inhibition is -7 in assay [1] (setting [4]) and 1 in assay [1] (setting [5]). Besides, the “schizont net growth area inhibition” value in assay [2] (setting [4]) was 13; in assay [2] (setting [5]) it was -59.3. Also, the hepatic nuclei reduction in assay [3] (setting [4]) was -1%; in assay [3] (setting [5]) it was -3%.

Turning to `CC(C)(CN)c1nc(-c2ccc(Cl)c(O)c2)c(-c2ccnc(N)n2)[nH]1`, the hypnozoite quantity inhibition in assay [1] (setting [4]) is 40; in assay [1] (setting [5]) it was -58. The results for the “schizont net growth area inhibition” value in assay [2] (setting [4]) and in assay [2] (setting [5]) were 50.8 and -17.8, respectively. The results for the hepatic nuclei reduction in assay [3] (setting [4]) and in assay [3] (setting [5]) were -11% and -1%, respectively.

The values above are taken from the supplement of paper PMC8497498.
